Assay results taken from the supplement of paper PMC12823440, “Inhibitors supercharge kinase turnover through native proteolytic circuits” (Nature, 2025).
Structures can show the parent of a compound that is named as a salt. This is one part of the list. Hit calls seldom repeat between salt and free forms of one compound.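 Kinases, fused to nanoluciferase, were expressed in K562 cells; luminescence was measured every 4 h from 2 to 18 h as percent of control (DMSO = 100%, positive control = 0%). A time point is decreased if signal falls significantly (2 sigma). Hits were called by the authors by a rule that is not shown; the count of time points alone does not decide it.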

By UniProt entry, the sequences of proteins in these tests, tags left out. Where a name states a change or a piece, a line headed by the entry shows the natural chain unless it says otherwise.
UniProt Q9Y616: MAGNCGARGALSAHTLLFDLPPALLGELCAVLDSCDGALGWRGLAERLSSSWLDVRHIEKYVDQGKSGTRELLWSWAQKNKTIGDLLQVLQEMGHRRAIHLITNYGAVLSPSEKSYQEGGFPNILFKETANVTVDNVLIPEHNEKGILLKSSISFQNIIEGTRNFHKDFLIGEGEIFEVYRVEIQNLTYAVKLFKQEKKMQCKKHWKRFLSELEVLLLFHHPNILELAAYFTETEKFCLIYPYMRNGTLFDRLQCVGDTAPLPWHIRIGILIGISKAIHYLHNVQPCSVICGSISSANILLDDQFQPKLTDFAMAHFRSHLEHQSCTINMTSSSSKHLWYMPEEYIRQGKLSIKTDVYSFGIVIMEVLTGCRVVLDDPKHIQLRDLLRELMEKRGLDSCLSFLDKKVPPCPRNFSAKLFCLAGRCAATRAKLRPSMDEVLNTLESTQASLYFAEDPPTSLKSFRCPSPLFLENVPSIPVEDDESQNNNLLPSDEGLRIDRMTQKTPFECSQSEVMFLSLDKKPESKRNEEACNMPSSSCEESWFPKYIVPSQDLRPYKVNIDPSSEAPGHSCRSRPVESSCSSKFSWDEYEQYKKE
UniProt P06239: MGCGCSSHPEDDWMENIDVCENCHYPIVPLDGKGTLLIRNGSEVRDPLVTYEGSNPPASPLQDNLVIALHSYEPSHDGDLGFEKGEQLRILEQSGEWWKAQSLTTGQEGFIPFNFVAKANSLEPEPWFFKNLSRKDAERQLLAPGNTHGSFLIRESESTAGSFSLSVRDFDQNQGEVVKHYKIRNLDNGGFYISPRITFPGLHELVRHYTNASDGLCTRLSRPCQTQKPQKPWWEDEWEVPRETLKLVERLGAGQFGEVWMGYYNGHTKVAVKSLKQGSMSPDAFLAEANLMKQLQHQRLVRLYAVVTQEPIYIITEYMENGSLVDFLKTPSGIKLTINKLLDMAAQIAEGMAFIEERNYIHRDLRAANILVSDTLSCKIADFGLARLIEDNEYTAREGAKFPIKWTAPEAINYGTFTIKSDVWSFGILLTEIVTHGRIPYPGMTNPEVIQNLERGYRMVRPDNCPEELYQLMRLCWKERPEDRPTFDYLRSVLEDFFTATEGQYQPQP
UniProt P53667: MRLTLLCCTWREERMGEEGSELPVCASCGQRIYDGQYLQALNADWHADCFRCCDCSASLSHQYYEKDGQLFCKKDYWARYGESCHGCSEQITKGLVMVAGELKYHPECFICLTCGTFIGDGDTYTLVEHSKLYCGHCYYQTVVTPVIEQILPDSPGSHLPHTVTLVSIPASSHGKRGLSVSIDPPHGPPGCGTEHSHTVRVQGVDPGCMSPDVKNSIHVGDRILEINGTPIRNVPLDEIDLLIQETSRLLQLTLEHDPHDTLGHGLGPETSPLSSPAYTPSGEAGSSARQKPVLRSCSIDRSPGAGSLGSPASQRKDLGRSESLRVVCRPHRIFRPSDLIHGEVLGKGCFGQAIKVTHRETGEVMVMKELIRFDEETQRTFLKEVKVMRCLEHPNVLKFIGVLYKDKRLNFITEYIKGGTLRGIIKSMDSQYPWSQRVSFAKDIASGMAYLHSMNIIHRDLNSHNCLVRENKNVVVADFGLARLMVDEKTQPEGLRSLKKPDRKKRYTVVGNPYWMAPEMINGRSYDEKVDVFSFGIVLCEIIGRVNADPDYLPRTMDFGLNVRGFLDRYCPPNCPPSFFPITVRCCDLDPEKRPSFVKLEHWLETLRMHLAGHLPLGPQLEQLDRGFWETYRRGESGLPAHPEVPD
UniProt P53671: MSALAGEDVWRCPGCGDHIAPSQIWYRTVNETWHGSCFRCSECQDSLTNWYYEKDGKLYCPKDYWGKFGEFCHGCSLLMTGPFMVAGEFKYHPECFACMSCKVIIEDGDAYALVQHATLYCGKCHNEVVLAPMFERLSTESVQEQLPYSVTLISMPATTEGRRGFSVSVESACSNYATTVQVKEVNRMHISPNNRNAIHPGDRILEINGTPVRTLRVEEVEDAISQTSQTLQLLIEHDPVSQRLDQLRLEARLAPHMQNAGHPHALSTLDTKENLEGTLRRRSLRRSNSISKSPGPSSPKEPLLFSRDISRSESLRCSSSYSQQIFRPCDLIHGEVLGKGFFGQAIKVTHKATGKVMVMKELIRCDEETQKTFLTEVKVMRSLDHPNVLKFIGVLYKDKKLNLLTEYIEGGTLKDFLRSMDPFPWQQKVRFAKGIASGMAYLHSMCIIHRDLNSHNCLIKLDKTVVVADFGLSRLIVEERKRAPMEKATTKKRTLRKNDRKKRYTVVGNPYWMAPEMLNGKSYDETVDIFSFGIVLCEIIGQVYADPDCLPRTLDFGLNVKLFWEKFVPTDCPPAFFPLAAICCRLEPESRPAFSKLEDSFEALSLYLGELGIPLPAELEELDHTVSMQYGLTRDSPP
UniProt Q8IWU2: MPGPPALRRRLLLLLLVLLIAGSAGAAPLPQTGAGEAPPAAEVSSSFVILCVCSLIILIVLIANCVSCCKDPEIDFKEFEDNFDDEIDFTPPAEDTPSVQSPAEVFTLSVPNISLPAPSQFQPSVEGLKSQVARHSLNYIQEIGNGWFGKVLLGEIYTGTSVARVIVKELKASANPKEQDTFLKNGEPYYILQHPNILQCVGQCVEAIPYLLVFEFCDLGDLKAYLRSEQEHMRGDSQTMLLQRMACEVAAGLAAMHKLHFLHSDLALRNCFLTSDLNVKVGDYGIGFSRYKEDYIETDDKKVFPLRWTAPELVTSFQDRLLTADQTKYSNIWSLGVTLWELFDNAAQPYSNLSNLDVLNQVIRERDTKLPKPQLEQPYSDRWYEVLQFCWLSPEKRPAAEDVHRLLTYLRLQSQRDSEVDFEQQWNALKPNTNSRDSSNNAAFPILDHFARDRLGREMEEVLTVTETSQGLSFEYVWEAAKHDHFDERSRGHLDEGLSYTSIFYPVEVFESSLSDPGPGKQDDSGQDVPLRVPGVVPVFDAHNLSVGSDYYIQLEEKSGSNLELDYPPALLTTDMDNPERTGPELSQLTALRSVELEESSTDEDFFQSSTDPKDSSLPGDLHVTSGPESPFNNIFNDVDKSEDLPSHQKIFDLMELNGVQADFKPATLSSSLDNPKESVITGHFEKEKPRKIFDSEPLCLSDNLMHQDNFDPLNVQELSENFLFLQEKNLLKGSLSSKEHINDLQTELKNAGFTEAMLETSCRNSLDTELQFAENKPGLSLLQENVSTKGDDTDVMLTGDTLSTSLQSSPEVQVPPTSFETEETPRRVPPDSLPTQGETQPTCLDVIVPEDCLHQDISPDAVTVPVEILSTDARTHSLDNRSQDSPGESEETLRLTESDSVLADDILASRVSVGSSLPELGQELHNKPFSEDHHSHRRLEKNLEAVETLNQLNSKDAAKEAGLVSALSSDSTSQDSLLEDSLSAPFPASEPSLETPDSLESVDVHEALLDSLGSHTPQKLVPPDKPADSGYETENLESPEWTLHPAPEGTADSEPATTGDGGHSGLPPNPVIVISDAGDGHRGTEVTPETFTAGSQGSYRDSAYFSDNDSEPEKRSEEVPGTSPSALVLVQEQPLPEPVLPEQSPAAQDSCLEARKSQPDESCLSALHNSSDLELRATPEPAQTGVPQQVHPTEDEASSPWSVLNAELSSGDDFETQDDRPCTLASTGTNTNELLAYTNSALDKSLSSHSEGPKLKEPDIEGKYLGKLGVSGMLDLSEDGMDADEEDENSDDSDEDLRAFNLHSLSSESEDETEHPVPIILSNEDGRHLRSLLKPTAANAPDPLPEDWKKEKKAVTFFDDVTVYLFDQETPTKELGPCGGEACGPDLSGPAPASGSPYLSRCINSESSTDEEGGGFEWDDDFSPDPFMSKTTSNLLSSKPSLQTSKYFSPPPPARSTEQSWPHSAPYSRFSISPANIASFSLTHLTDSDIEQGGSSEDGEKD
UniProt P49137, whole entry, looked up: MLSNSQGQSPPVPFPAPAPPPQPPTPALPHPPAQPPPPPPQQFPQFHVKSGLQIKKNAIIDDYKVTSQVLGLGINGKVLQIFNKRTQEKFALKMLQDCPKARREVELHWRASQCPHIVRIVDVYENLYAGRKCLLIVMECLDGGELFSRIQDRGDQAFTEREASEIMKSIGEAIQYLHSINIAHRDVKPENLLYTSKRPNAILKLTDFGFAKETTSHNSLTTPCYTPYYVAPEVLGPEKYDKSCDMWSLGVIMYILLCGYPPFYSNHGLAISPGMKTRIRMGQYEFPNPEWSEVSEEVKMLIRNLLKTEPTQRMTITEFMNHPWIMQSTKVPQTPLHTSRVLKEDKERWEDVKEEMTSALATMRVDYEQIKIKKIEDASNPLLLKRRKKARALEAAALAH
UniProt Q16288, whole entry, looked up: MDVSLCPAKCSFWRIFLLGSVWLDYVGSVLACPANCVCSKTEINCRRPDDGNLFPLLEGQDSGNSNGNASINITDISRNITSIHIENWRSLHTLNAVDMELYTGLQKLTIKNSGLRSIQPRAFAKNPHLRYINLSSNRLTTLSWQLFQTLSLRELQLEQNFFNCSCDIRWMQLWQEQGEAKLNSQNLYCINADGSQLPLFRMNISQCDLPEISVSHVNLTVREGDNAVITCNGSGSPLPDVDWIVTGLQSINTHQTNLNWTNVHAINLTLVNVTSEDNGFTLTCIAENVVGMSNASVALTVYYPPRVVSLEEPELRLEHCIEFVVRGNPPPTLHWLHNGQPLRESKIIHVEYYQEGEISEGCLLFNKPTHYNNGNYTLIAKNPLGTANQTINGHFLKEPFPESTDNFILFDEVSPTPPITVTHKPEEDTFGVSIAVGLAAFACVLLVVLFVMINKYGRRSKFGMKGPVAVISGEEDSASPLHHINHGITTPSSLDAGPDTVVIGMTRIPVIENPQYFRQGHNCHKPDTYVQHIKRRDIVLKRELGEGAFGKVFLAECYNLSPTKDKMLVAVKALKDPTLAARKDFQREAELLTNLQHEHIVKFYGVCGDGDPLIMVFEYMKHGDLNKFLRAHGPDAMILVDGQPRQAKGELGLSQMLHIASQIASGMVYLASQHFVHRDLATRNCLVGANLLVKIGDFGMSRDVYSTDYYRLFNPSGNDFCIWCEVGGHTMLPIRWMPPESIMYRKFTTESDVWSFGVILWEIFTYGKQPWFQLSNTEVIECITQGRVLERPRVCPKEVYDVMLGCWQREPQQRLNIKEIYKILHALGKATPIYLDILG
UniProt Q96KB5: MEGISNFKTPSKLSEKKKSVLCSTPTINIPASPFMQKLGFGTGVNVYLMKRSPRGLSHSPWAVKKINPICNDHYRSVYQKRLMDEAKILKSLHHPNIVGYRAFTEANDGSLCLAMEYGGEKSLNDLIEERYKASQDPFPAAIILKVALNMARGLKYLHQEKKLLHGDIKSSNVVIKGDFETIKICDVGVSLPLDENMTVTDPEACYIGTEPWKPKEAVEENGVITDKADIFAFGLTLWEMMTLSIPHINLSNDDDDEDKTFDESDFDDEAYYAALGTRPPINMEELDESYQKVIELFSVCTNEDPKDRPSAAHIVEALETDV
UniProt P09619, whole entry: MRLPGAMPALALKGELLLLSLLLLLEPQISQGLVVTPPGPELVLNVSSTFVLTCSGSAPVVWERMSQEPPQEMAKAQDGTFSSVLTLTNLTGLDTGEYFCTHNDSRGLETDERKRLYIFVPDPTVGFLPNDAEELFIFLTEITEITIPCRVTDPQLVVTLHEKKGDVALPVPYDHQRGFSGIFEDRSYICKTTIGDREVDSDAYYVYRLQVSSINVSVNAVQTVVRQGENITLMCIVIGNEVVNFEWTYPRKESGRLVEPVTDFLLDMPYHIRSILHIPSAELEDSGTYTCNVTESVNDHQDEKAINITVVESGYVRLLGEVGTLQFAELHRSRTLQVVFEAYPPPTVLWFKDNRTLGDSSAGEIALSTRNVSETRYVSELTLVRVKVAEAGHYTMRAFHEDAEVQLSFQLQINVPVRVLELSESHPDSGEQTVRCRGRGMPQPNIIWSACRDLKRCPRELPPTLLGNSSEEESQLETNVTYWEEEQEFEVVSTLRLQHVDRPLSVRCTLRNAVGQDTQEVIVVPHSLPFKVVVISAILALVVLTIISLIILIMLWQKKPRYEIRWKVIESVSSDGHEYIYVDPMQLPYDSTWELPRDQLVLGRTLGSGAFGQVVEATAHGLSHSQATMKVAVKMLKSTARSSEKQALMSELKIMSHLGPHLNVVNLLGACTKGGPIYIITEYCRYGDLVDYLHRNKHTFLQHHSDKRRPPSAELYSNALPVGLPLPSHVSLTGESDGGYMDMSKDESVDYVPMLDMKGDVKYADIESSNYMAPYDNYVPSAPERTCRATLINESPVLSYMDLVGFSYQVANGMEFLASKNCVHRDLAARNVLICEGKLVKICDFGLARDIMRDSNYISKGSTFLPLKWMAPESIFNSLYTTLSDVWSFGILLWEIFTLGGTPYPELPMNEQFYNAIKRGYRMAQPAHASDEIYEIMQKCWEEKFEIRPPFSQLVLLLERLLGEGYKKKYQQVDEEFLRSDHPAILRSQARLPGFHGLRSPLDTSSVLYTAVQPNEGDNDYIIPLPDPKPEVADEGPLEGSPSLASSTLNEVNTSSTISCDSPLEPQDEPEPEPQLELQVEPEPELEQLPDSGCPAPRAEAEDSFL

Key:
Assay in all cases: kinase-Nluc reporter destabilization hit call (1 = scored as downregulated) (binary); higher = compound decreases kinase abundance
Settings in all cases: K562; 2-18 h
[1] = molecular target: IRAK3 (UniProt Q9Y616)
[2] = molecular target: JAK1 (UniProt P23458)
[3] = molecular target: LCK (UniProt P06239)
[4] = molecular target: LIMK1 (UniProt P53667)
[5] = molecular target: LIMK2 (UniProt P53671)
[6] = molecular target: LMTK2 (UniProt Q8IWU2)
[7] = molecular target: LYN (UniProt P07948)
[8] = molecular target: MAP2K1 (UniProt Q02750)
[9] = molecular target: MAP2K2 (UniProt P36507)
[10] = molecular target: MAP4K2 (UniProt Q12851)
[11] = molecular target: MAPK1 (UniProt P28482)
[12] = molecular target: MAPK4 (UniProt P31152)
[13] = molecular target: MAPKAPK2 (UniProt P49137)
[14] = molecular target: MKNK1 (UniProt Q9BUB5)
[15] = molecular target: NTRK2 (UniProt Q16620)
[16] = molecular target: NTRK3 (UniProt Q16288)
[17] = molecular target: PAK4 (UniProt O96013)
[18] = molecular target: PBK (UniProt Q96KB5)
[19] = molecular target: PDGFRB (UniProt P09619)
[20] = molecular target: PDK1 (UniProt Q15118)

Measured: kinase-Nluc reporter destabilization hit call

O=c1[nH]c(=O)n([C@@H]2O[C@H](CO)[C@@H](O)[C@@H]2O)cc1/C=C/Br [Sorivudine] (10 µM)
inactive: [1] 0 | [2] 0 | [3] 0 | [4] 0 | [5] 0 | [6] 0 | [7] 0 | [8] 0 | [9] 0 | [10] 0 | [11] 0 | [12] 0 | [13] 0 | [14] 0 | [15] 0 | [16] 0 | [17] 0 | [18] 0 | [19] 0 | [20] 0

CCc1cc2c(cc1N1CCC(N3CCOCC3)CC1)C(C)(C)c1[nH]c3cc(C#N)ccc3c1C2=O [Alectinib (Hydrochloride)] (2 µM)
inactive: [1] 0 | [2] 0 | [3] 0 | [4] 0 | [5] 0 | [6] 0 | [7] 0 | [8] 0 | [9] 0 | [10] 0 | [11] 0 | [12] 0 | [13] 0 | [14] 0 | [15] 0 | [16] 0 | [17] 0 | [18] 0 | [19] 0 | [20] 0

COc1cc2ncc(-c3ccccc3)nc2cc1OC [Tyrphostin AG1296] (10 µM)
inactive: [1] 0 | [2] 0 | [3] 0 | [4] 0 | [5] 0 | [6] 0 | [7] 0 | [8] 0 | [9] 0 | [10] 0 | [11] 0 | [12] 0 | [13] 0 | [14] 0 | [15] 0 | [16] 0 | [17] 0 | [18] 0 | [19] 0 | [20] 0

CN1C(=O)N[C@H](Cc2c[nH]c3c(Cl)cccc23)C1=O [Necrostatin 2] (10 µM)
inactive: [1] 0 | [2] 0 | [3] 0 | [4] 0 | [5] 0 | [6] 0 | [7] 0 | [8] 0 | [9] 0 | [10] 0 | [11] 0 | [12] 0 | [13] 0 | [14] 0 | [15] 0 | [16] 0 | [17] 0 | [18] 0 | [19] 0 | [20] 0

CN(CC(=O)N(Cc1ccc(C2CCCCC2)cc1)c1ccc(C(=O)NO)cc1)S(=O)(=O)c1c(F)c(F)c(F)c(F)c1F (2.5 µM)
inactive: [1] 0 | [2] 0 | [3] 0 | [4] 0 | [5] 0 | [6] 0 | [7] 0 | [8] 0 | [9] 0 | [10] 0 | [11] 0 | [12] 0 | [13] 0 | [14] 0 | [15] 0 | [16] 0 | [17] 0 | [18] 0 | [19] 0 | [20] 0

Oc1ccc(Nc2nc(-c3ccc(Cl)cc3)cs2)cc1 (10 µM)
inactive: [1] 0 | [2] 0 | [3] 0 | [4] 0 | [5] 0 | [6] 0 | [7] 0 | [8] 0 | [9] 0 | [10] 0 | [11] 0 | [12] 0 | [13] 0 | [14] 0 | [15] 0 | [16] 0 | [17] 0 | [18] 0 | [19] 0 | [20] 0

C=C1C(=O)O[C@H]2C[C@H](C)C(/C=C/C(C)=O)=CC[C@H]12 [Xanthatin] (2.5 µM)
inactive: [1] 0 | [2] 0 | [3] 0 | [4] 0 | [5] 0 | [6] 0 | [7] 0 | [8] 0 | [9] 0 | [10] 0 | [11] 0 | [12] 0 | [13] 0 | [14] 0 | [15] 0 | [16] 0 | [17] 0 | [18] 0 | [19] 0 | [20] 0

O=Nc1c(-c2c(O)[nH]c3ccc(F)cc23)[nH]c2ccccc12 [5'-Fluoroindirubinoxime] (10 µM)
inactive: [1] 0 | [2] 0 | [3] 0 | [4] 0 | [5] 0 | [6] 0 | [7] 0 | [8] 0 | [9] 0 | [10] 0 | [11] 0 | [12] 0 | [13] 0 | [14] 0 | [15] 0 | [16] 0 | [17] 0 | [18] 0 | [19] 0 | [20] 0

CC1(C)C(O[C@@H]2OC[C@@H](O)[C@H](O)[C@H]2O)CC[C@]23CC24CC[C@]2(C)[C@@H]([C@@]5(C)CC[C@@H](C(C)(C)O)O5)[C@H](O)C[C@@]2(C)C4C[C@@H](O[C@@H]2O[C@H](CO)[C@@H](O)[C@H](O)[C@H]2O)C13 (stereo not given in full) [Astragaloside IV] (10 µM)
inactive: [1] 0 | [2] 0 | [3] 0 | [4] 0 | [5] 0 | [6] 0 | [7] 0 | [8] 0 | [9] 0 | [10] 0 | [11] 0 | [12] 0 | [13] 0 | [14] 0 | [15] 0 | [16] 0 | [17] 0 | [18] 0 | [19] 0 | [20] 0

Cn1cc(-c2cnn3c(N)c(Br)c([C@@H]4CCCNC4)nc23)cn1 (2.5 µM)
inactive: [1] 0 | [2] 0 | [3] 0 | [4] 0 | [5] 0 | [6] 0 | [7] 0 | [8] 0 | [9] 0 | [10] 0 | [11] 0 | [12] 0 | [13] 0 | [14] 0 | [15] 0 | [16] 0 | [17] 0 | [18] 0 | [19] 0 | [20] 0

CCN1CCN(Cc2ccc(Nc3ncc(F)c(-c4cc(F)c5nc(C)n(C(C)C)c5c4)n3)nc2)CC1 [Abemaciclib (methanesulfonate)] (10 µM)
inactive: [1] 0 | [2] 0 | [3] 0 | [4] 0 | [5] 0 | [6] 0 | [7] 0 | [8] 0 | [9] 0 | [10] 0 | [11] 0 | [12] 0 | [13] 0 | [14] 0 | [15] 0 | [16] 0 | [17] 0 | [18] 0 | [19] 0 | [20] 0

CC(=O)c1c(C)cc2cccc(O)c2c1O [Nepodin] (10 µM)
inactive: [1] 0 | [2] 0 | [3] 0 | [4] 0 | [5] 0 | [6] 0 | [7] 0 | [8] 0 | [9] 0 | [10] 0 | [11] 0 | [12] 0 | [13] 0 | [14] 0 | [15] 0 | [16] 0 | [17] 0 | [18] 0 | [19] 0 | [20] 0

CCOc1ccc2cc(-c3nn(CC4CCN(C)CC4)c4ncnc(N)c34)ccc2n1 (10 µM)
inactive: [1] 0 | [2] 0 | [3] 0 | [4] 0 | [5] 0 | [6] 0 | [7] 0 | [8] 0 | [9] 0 | [10] 0 | [11] 0 | [12] 0 | [13] 0 | [14] 0 | [15] 0 | [16] 0 | [17] 0 | [18] 0 | [19] 0 | [20] 0

Cc1ccc(CNc2ncnc3ccc(-c4ccc(CO)o4)cc23)o1 (10 µM)
inactive: [1] 0 | [2] 0 | [3] 0 | [4] 0 | [5] 0 | [6] 0 | [7] 0 | [8] 0 | [9] 0 | [10] 0 | [11] 0 | [12] 0 | [13] 0 | [14] 0 | [15] 0 | [16] 0 | [17] 0 | [18] 0 | [19] 0 | [20] 0

Nc1nc2ccc(Cl)cc2c2nc(-c3ccco3)nn12 (10 µM)
inactive: [1] 0 | [2] 0 | [3] 0 | [4] 0 | [5] 0 | [6] 0 | [7] 0 | [8] 0 | [9] 0 | [10] 0 | [11] 0 | [12] 0 | [13] 0 | [14] 0 | [15] 0 | [16] 0 | [17] 0 | [18] 0 | [19] 0 | [20] 0

NS(=O)(=O)c1ccc(-n2nc(C(F)(F)F)cc2-c2ccc(Cl)cc2)cc1 (10 µM)
inactive: [1] 0 | [2] 0 | [3] 0 | [4] 0 | [5] 0 | [6] 0 | [7] 0 | [8] 0 | [9] 0 | [10] 0 | [11] 0 | [12] 0 | [13] 0 | [14] 0 | [15] 0 | [16] 0 | [17] 0 | [18] 0 | [19] 0 | [20] 0

2 records picked at random from the list so far:
CC(=O)c1c(C)cc2cccc(O)c2c1O [Nepodin] (10 µM)
inactive: [1] 0 | [2] 0 | [3] 0 | [4] 0 | [5] 0 | [6] 0 | [7] 0 | [8] 0 | [9] 0 | [10] 0 | [11] 0 | [12] 0 | [13] 0 | [14] 0 | [15] 0 | [16] 0 | [17] 0 | [18] 0 | [19] 0 | [20] 0

Nc1nc2ccc(Cl)cc2c2nc(-c3ccco3)nn12 (10 µM)
inactive: [1] 0 | [2] 0 | [3] 0 | [4] 0 | [5] 0 | [6] 0 | [7] 0 | [8] 0 | [9] 0 | [10] 0 | [11] 0 | [12] 0 | [13] 0 | [14] 0 | [15] 0 | [16] 0 | [17] 0 | [18] 0 | [19] 0 | [20] 0
